PubChem BioAssay AID1259297 – Sanger Institute | 2017
Purpose: 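siRNA screen across the kinome seeking drug partners in cells of colorectal cancer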 (primary screen). System: human RCM1 colorectal cancer cell line. Knock-down reagent: siRNA pool against human genes. Treatment: separate arms: DMSO vehicle, or one anchor drug at a mild dose: BYL719 1 µM, cetuximab 5 µg/ml, trametinib 10 nM. Read-out: 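Replicate-mean well viability as a share of non-targeting pool control, a robust z-score without drug, and synergy scores for BYL719, cetuximab and trametinib arms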. Direction: viability z-score, knock-down alone: higher = more viable cells than non-targeting controls; viability, knock-down alone (DMSO): higher = more viable cells; synergy score with trametinib: higher = stronger combined killing with trametinib; synergy score with BYL719: higher = stronger combined killing with BYL719; synergy score with cetuximab: higher = stronger combined killing with cetuximab. Hit rule: 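Called essential if knock-down without drug gives a viability robust z-score under -3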. Meaning of the calls: active = essential when knocked down alone; inactive = no clear loss of viability alone.
The whole screen tested 794 reagents; below is a part drawn at random. Over the whole deposit, 13 (1.6%) were called active. 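Calls reflect knock-down without drug only; drug synergy is judged separately, with scores above 0.15 counted as synergy.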 No viability above 1 is reported: the scale is capped. The record does not give: the amount of reagent, the time to read-out.

no.	Target gene	viability z-score, knock-down alone	viability, knock-down alone (DMSO) (fraction of control)	synergy score with trametinib	synergy score with BYL719	synergy score with cetuximab	outcome
1	MSR1	0.9	1	0.0529	-0.0717	-0.0413	inactive
2	CDK8	0.9	1	0.0402	-0.0728	-0.118	inactive
3	BMAL1	-2.91	0.647	-0.0319	-0.00314	0.0452	inactive
4	FLT1	0.9	1	-0.0526	-0.0728	-0.118	inactive
5	CDK5R2	0.9	1	-0.112	-0.0728	0.0513	inactive
6	NRAS	-0.0877	0.908	-0.0231	-0.134	-0.186	inactive
7	GRK4	0.1	0.926	-0.0197	0.173	0.167	inactive
8	MAST2	0.767	0.988	0.0904	0.0786	-0.049	inactive
9	RIPK3	-0.125	0.905	0.109	-0.0431	-0.0979	inactive
10	CDC42BPG	0.743	0.985	-0.0564	0.0194	-0.131	inactive
11	STK17A	-2.15	0.716	-0.0236	-0.0529	-0.0234	inactive
12	PANK2	0.9	1	0.193	0.0755	-0.0778	inactive
13	PRKCZ	-2.07	0.725	-0.0932	-0.0381	-0.154	inactive
14	PKLR	0.9	1	0.0824	-0.0728	-0.118	inactive
15	DGKQ	0.489	0.962	0.0581	0.0301	-0.00132	inactive
16	TTBK1	0.0993	0.926	-0.0218	-0.0324	-0.0657	inactive
17	MAPKAPK2	0.366	0.95	-0.00129	-0.0551	-0.024	inactive
18	HK2	-2.11	0.721	-0.0683	0.0641	0.00265	inactive
19	PIM1	-0.788	0.843	0.194	-0.0849	-0.101	inactive
20	TAB1	0.9	1	-0.023	-0.0728	-0.118	inactive

2 neighbouring reagents from above, for reference:
no.	Target gene	viability z-score, knock-down alone	viability, knock-down alone (DMSO) (fraction of control)	synergy score with trametinib	synergy score with BYL719	synergy score with cetuximab	outcome
8	MAST2	0.767	0.988	0.0904	0.0786	-0.049	inactive
9	RIPK3	-0.125	0.905	0.109	-0.0431	-0.0979	inactive
